Some entries share one result that the patent states for a list of compounds.
Tested on: STn on bovine submaxillary mucin (BSM)
Experiment: Anti-STn BSM ELISA, non-treated and periodate-treated wells
Type: binding
Details: non-linear regression on periodate subtracted data; 7-point 1:5 dilution from 100 nM
Method: Anti-STn serum titer is determined using a murine anti-STn bovine submaxillary mucin (BSM) ELISA together with serum profiles observed by glycan microarray. 96-well plates are coated with 1 μg/well of BSM and incubated overnight at 4° C. O-acetylation of BSM antigen is removed by treating wells with 0.1 M sodium hydroxide. Specific binding to STn is determined by treatment of wells with sodium periodate. Periodate treatment destroys the […] side chain of sialic acid; therefore antibodies raised against STn should not bind to periodate-treated wells. Wells are blocked with PBS 1% ovalbumin (OVA). Serum samples to be assayed are serially diluted in PBS 1% OVA. […] Detection of anti-STn antibodies present in serum is determined using an HRP-conjugated polyclonal goat anti-mouse IgG antibody (Jackson Immunoresearch, West Grove, Pa.). […] Optical densities are measured at 490 nm using a Spectramax microplate reader (Molecular Devices, Sunnyvale, Calif.). The serum titer is obtained by comparison of OD values with a cutoff value calculated as two standard deviations above the mean of optical density values of the negative control. […]
Binding affinities of 18D2 and 18C7 to STn were compared to commercially available anti-STn antibodies using the BSM ELISA assay described in Example 2. […] Optical densities were measured at 490 nm using a Spectramax microplate reader. […]

B1: 3F1: commercially available mouse anti-STn monoclonal antibody (SBH Sciences), IgG1; VH SEQ ID NO: 59, VL SEQ ID NO: 60 (antibody, V domains shown)
VH: QVQLQQSDAELVKPGASVKISCKASGYTFTDHAIHWVKQKPEQGLDWIGYISPGNGDIKYNEKFKDKVTLTADKSSSTACMHLNSLTSEDSAVYFCKRSLLALDYWGQGTTLTVSS
VL: DIVMTQSHKFMSTSVGDRVSITCKASQDVGTNIAWYQQKPGRSPKVLIYSASTRHTGVPDRFTGSGSGTDFTLTISNVQSEDLTDYFCQQYSSFPLTFGVGTKLELK
EC50: < 1 nM
